Test results published in article PMC7337498.

Amino acid sequences for entries named in this document (tags omitted).
UniProt Q9UHB6: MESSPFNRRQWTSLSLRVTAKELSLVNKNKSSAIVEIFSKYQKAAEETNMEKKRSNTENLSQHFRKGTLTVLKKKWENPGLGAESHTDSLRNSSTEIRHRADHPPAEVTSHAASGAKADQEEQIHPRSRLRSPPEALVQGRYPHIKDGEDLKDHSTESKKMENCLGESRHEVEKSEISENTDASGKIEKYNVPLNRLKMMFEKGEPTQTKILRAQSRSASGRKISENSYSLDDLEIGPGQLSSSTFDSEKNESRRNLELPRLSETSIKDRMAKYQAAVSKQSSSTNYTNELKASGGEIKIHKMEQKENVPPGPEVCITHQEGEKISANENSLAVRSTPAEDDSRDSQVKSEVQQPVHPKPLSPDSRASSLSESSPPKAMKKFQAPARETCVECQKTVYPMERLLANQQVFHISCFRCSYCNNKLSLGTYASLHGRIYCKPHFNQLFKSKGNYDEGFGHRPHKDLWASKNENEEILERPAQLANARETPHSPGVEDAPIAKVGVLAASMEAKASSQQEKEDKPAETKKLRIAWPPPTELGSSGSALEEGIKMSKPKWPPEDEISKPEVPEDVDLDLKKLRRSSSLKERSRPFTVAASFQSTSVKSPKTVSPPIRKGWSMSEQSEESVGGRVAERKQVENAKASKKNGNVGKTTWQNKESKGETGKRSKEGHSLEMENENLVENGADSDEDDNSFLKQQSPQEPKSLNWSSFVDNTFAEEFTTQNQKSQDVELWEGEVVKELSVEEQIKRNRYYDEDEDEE
UniProt P08590: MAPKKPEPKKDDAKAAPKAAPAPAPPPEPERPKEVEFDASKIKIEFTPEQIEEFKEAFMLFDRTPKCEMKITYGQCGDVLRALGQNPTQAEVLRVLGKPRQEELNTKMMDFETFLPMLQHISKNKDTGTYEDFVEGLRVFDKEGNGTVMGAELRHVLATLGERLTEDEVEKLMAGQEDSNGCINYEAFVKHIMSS
UniProt P14649: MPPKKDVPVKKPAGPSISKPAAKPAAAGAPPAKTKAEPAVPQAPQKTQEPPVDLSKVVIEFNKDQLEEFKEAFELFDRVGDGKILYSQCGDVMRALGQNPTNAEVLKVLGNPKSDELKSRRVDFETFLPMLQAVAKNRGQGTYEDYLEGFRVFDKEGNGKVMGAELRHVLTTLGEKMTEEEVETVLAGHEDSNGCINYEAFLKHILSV
UniProt P21333: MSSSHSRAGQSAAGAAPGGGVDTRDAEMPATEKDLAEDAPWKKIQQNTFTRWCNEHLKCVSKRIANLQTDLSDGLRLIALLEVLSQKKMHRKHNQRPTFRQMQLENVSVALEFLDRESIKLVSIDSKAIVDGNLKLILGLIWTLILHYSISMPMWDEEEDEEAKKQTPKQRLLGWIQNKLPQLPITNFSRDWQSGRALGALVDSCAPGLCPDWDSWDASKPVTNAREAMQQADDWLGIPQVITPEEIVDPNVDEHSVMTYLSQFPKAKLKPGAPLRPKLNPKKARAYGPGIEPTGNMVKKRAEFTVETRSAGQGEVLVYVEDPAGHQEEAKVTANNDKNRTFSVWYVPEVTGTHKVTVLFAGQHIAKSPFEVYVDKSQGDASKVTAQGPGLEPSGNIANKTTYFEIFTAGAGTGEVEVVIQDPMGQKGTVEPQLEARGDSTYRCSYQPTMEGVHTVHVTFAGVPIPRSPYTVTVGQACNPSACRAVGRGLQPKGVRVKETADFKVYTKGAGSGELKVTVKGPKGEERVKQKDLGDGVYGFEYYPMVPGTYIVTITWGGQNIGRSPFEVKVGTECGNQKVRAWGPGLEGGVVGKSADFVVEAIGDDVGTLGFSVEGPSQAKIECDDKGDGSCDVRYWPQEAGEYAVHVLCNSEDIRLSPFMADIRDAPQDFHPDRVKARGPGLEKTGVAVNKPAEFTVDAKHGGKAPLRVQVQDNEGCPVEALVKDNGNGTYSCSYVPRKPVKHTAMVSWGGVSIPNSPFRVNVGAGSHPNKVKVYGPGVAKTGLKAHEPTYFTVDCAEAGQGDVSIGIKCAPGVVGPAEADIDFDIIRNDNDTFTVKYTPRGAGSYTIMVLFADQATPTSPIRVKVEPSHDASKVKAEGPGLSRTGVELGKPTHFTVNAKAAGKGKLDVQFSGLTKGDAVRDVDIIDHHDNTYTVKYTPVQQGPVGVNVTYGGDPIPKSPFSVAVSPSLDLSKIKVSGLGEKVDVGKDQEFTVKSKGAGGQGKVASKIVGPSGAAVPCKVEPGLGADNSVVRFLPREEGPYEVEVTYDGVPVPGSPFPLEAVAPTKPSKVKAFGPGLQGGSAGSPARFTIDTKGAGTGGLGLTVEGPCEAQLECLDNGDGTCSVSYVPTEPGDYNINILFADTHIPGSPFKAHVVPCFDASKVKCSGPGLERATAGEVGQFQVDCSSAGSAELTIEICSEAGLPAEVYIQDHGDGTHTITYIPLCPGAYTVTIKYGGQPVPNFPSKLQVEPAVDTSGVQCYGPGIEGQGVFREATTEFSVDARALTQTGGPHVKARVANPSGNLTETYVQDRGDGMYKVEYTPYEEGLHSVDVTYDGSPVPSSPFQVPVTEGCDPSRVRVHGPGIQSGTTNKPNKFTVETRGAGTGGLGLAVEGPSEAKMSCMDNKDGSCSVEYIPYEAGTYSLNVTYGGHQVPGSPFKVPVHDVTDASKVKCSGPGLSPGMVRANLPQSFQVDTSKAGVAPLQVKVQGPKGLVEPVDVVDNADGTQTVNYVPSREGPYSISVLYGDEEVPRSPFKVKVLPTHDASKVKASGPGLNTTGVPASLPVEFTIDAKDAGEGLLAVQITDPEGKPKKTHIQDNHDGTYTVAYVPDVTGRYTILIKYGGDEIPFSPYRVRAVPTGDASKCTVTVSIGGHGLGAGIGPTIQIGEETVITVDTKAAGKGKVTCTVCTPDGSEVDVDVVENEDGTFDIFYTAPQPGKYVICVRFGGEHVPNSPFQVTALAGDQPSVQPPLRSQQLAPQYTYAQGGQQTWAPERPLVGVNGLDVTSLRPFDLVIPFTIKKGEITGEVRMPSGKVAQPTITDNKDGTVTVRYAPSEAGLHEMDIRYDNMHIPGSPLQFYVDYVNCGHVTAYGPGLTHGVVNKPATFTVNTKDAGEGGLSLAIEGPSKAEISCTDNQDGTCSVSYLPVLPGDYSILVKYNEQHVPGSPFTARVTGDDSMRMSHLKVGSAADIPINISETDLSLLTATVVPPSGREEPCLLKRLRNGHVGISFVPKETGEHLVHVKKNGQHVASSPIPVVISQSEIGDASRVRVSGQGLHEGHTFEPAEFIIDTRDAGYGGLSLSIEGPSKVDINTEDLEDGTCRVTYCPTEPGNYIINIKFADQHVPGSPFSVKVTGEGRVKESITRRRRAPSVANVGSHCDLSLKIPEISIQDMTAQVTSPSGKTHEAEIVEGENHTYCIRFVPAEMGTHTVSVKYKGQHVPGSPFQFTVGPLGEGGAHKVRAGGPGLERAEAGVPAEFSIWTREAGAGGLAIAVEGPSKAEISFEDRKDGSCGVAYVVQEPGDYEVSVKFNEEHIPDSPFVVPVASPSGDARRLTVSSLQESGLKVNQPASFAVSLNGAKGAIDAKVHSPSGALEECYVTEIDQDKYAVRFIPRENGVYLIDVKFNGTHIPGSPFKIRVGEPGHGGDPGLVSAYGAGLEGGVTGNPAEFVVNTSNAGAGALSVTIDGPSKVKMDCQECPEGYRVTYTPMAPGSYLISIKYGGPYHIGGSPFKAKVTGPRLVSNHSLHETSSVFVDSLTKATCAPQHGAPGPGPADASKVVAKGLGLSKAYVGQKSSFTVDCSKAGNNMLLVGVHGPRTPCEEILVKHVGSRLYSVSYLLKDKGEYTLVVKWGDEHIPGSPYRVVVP
UniProt O75369: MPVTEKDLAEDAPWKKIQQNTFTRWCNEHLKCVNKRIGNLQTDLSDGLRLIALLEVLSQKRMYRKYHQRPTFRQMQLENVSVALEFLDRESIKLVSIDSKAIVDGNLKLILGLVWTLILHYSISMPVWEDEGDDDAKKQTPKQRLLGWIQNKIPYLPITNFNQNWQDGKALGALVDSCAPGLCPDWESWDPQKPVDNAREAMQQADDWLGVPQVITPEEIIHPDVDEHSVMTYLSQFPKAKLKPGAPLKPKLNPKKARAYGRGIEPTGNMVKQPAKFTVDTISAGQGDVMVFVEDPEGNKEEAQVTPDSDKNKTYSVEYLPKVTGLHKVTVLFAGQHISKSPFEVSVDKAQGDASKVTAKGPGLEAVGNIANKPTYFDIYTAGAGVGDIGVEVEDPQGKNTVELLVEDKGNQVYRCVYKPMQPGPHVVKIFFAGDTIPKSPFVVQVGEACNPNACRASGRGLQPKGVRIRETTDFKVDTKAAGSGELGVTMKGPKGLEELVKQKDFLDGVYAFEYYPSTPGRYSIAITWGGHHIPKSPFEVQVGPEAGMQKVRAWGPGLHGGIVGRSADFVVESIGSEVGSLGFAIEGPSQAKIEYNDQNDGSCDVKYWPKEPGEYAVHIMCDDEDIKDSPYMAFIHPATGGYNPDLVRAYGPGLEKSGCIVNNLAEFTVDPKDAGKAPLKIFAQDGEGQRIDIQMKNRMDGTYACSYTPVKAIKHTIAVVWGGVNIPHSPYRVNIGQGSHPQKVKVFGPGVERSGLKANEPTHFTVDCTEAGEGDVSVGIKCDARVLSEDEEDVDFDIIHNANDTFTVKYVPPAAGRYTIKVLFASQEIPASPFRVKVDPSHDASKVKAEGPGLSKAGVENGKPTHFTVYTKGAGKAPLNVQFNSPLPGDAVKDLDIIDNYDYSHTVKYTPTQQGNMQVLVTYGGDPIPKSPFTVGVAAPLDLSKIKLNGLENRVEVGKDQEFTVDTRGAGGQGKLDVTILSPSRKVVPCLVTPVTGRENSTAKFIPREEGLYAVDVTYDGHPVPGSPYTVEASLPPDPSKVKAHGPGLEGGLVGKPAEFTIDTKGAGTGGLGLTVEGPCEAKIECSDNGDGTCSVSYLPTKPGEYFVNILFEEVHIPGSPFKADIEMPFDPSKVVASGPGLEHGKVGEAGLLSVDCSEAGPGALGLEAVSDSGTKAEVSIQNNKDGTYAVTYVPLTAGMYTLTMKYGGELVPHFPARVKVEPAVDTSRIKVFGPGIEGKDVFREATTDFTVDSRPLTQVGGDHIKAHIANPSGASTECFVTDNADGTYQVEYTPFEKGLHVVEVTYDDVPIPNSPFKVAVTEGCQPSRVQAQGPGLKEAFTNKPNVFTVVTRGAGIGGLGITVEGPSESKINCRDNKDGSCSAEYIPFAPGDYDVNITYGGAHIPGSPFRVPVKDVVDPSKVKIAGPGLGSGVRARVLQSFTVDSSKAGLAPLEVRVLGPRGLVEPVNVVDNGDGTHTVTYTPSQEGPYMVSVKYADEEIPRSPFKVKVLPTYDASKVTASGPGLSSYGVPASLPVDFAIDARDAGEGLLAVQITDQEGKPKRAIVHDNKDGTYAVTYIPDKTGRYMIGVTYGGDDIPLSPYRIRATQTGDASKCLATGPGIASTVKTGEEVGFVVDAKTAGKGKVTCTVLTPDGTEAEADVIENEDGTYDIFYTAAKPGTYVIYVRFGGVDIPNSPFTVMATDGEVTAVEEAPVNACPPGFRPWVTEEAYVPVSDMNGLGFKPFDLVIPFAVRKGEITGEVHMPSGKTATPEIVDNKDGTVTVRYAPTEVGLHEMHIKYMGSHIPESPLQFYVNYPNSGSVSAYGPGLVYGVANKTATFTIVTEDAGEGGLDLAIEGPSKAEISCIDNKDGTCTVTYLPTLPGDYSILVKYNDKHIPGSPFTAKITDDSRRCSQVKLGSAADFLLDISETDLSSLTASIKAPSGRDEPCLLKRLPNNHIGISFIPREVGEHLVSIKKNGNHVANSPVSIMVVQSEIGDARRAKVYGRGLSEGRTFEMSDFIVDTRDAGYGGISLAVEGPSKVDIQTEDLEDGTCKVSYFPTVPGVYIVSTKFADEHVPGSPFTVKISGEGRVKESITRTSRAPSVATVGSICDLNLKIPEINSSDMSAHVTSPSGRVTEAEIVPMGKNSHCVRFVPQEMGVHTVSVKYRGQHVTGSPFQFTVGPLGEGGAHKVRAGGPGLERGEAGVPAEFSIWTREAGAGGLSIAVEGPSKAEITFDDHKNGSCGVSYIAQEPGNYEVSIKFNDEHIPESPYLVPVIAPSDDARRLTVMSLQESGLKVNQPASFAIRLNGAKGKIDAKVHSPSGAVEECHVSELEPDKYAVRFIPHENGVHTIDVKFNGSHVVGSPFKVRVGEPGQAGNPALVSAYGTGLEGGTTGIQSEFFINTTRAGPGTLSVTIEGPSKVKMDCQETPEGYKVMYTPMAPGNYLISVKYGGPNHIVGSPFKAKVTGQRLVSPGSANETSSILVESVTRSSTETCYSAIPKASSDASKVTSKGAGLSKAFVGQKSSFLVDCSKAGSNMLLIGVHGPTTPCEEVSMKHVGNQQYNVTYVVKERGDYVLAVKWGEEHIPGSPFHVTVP
UniProt O14950: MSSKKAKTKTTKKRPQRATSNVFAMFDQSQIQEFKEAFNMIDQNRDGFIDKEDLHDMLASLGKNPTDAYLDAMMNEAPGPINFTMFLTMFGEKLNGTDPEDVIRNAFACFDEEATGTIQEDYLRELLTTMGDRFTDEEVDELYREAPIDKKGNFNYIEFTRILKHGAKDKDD

T1: FLAG-BirA*-LUZP1 (human) (UniProt Q86V48)
T1 sequence: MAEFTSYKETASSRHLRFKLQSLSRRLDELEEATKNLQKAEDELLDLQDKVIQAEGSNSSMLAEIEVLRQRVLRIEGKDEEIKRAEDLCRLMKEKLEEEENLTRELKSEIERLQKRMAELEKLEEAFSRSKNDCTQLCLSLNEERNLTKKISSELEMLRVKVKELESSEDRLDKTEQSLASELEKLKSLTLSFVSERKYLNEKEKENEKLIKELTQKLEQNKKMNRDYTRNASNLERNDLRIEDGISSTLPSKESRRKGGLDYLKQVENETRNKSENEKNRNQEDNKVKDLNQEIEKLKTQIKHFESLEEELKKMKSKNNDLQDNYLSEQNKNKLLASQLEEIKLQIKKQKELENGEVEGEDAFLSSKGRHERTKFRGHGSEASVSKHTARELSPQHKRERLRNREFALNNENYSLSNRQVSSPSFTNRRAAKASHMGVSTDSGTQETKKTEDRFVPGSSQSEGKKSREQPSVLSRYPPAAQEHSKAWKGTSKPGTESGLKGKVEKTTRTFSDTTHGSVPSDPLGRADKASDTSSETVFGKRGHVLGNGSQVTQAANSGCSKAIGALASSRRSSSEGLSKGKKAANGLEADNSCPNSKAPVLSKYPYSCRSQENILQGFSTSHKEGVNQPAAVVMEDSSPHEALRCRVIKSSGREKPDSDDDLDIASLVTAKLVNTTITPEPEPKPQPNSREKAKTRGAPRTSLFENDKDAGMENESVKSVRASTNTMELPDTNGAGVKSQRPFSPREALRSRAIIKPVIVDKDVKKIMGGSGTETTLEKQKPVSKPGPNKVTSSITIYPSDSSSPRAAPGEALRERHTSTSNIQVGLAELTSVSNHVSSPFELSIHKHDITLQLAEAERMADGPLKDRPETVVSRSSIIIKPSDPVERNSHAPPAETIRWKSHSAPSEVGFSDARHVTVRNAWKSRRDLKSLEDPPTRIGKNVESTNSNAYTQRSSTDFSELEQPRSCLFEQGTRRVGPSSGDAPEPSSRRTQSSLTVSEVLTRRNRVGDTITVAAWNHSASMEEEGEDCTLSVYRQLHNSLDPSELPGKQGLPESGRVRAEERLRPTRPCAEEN


molecular target: T1, FLAG-BirA*-LUZP1 (human); test: proximity labelling; BioID: FLAG-BirA*-LUZP1 in Flp-In T-REx HEK293, tetracycline and 50 µM biotin for 24 h, cycling cells and cells serum starved for 48 h before biotin; streptavidin Sepharose capture, MS, SAINT against FLAG-BirA* alone, BFDR ≤0.01

Molecule	binding
EPLIN/LIMA1 (endogenous, HEK293) (from UniProt Q9UHB6 1-759)	binds
MYL3 (from UniProt P08590 1-195)	binds
MYL6 (from UniProt P60660 1-151)	binds
MYL6B (from UniProt P14649 1-208)	binds
TJP1 (from UniProt Q07157 1-1748)	binds
SORBS1/CAP (protein, UniProt Q9BX66 1-1292) MSSECDGGSKAVMNGLAPGSNGQDKATADPLRARSISAVKIIPVKTVKNASGLVLPTDMDLTKICTGKGAVTLRASSSYRETPSSSPASPQETRQHESKPGLEPEPSSADEWRLSSSADANGNAQPSSLAAKGYRSVHPNLPSDKSQDATSSSAAQPEVIVVPLYLVNTDRGQEGTARPPTPLGPLGCVPTIPATASAASPLTFPTLDDFIPPHLQRWPHHSQPARASGSFAPISQTPPSFSPPPPLVPPAPEDLRRVSEPDLTGAVSSTDSSPLLNEVSSSLIGTDSQAFPSVSKPSSAYPSTTIVNPTIVLLQHNREQQKRLSSLSDPVSERRVGEQDSAPTQEKPTSPGKAIEKRAKDDSRRVVKSTQDLSDVSMDEVGIPLRNTERSKDWYKTMFKQIHKLNRDTPEENPYFPTYKFPELPEIQQTSEEDNPYTPTYQFPASTPSPKSEDDDSDLYSPRYSFSEDTKSPLSVPRSKSEMSYIDGEKVVKRSATLPLPARSSSLKSSSERNDWEPPDKKVDTRKYRAEPKSIYEYQPGKSSVLTNEKMSRDISPEEIDLKNEPWYKFFSELEFGKPPPKKIWDYTPGDCSILPREDRKTNLDKDLSLCQTELEADLEKMETLNKAPSANVPQSSAISPTPEISSETPGYIYSSNFHAVKRESDGAPGDLTSLENERQIYKSVLEGGDIPLQGLSGLKRPSSSASTKDSESPRHFIPADYLESTEEFIRRRHDDKEKLLADQRRLKREQEEADIAARRHTGVIPTHHQFITNERFGDLLNIDDTAKRKSGSEMRPARAKFDFKAQTLKELPLQKGDIVYIYKQIDQNWYEGEHHGRVGIFPRTYIELLPPAEKAQPKKLTPVQVLEYGEAIAKFNFNGDTQVEMSFRKGERITLLRQVDENWYEGRIPGTSRQGIFPITYVDVIKRPLVKNPVDYMDLPFSSSPSRSATASPQFSSHSKLITPAPSSLPHSRRALSPEMHAVTSEWISLTVGVPGRRSLALTPPLPPLPEASIYNTDHLALSPRASPSLSLSLPHLSWSDRPTPRSVASPLALPSPHKTYSLAPTSQASLHMNGDGGVHTPSSGIHQDSFLQLPLGSSDSVISQLSDAFSSQSKRQPWREESGQYERKAERGAGERGPGGPKISKKSCLKPSDVVRCLSTEQRLSDLNTPEESRPGKPLGSAFPGSEAEQTERHRGGEQAGRKAARRGGSQQPQAQQRRVTPDRSQTSQDLFSYQALYSYIPQNDDELELRDGDIVDVMEKCDDGWFVGTSRRTKQFGTFPGNYVKPLYL	binds
SEPT2 (protein, UniProt Q15019 1-361) MSKQQPTQFINPETPGYVGFANLPNQVHRKSVKKGFEFTLMVVGESGLGKSTLINSLFLTDLYPERVIPGAAEKIERTVQIEASTVEIEERGVKLRLTVVDTPGYGDAINCRDCFKTIISYIDEQFERYLHDESGLNRRHIIDNRVHCCFYFISPFGHGLKPLDVAFMKAIHNKVNIVPVIAKADTLTLKERERLKKRILDEIEEHNIKIYHLPDAESDEDEDFKEQTRLLKASIPFSVVGSNQLIEAKGKKVRGRLYPWGVVEVENPEHNDFLKLRTMLITHMQDLQEVTQDLHYENFRSERLKRGGRKVENEDMNKDQILLEKEAELRRMQEMIARMQAQMQMQMQGGDGDGGALGHHV	binds

Further lines, results first:

binding	Molecule
binds	FLNA (from UniProt P21333 1-2647)
binds	FLNB (from UniProt O75369 1-2602)
binds	MYL12B (from UniProt O14950 1-172)
binds	PCM1 (from UniProt Q15154 1-2024)
binds	MYL12A (protein, UniProt P19105 1-171) MSSKRTKTKTKKRPQRATSNVFAMFDQSQIQEFKEAFNMIDQNRDGFIDKEDLHDMLASLGKNPTDEYLDAMMNEAPGPINFTMFLTMFGEKLNGTDPEDVIRNAFACFDEEATGTIQEDYLRELLTTMGDRFTDEEVDELYREAPIDKKGNFNYIEFTRILKHGAKDKDD

Results are given in words; binding and its absence hold for the method and conditions named. In cells and extracts the contact can be indirect. Here binding means that the protein was enriched with, or labelled near, the bait; the list need not be complete. Tags and fused reporters may be left off the sequences shown.
